From publication doi:10.1101/336578 come the findings set out here.

By UniProt entry, the sequences of proteins in these tests, tags left out. Where a name states a change or a piece, a line headed by the entry shows the natural chain unless it says otherwise.
UniProt P07149: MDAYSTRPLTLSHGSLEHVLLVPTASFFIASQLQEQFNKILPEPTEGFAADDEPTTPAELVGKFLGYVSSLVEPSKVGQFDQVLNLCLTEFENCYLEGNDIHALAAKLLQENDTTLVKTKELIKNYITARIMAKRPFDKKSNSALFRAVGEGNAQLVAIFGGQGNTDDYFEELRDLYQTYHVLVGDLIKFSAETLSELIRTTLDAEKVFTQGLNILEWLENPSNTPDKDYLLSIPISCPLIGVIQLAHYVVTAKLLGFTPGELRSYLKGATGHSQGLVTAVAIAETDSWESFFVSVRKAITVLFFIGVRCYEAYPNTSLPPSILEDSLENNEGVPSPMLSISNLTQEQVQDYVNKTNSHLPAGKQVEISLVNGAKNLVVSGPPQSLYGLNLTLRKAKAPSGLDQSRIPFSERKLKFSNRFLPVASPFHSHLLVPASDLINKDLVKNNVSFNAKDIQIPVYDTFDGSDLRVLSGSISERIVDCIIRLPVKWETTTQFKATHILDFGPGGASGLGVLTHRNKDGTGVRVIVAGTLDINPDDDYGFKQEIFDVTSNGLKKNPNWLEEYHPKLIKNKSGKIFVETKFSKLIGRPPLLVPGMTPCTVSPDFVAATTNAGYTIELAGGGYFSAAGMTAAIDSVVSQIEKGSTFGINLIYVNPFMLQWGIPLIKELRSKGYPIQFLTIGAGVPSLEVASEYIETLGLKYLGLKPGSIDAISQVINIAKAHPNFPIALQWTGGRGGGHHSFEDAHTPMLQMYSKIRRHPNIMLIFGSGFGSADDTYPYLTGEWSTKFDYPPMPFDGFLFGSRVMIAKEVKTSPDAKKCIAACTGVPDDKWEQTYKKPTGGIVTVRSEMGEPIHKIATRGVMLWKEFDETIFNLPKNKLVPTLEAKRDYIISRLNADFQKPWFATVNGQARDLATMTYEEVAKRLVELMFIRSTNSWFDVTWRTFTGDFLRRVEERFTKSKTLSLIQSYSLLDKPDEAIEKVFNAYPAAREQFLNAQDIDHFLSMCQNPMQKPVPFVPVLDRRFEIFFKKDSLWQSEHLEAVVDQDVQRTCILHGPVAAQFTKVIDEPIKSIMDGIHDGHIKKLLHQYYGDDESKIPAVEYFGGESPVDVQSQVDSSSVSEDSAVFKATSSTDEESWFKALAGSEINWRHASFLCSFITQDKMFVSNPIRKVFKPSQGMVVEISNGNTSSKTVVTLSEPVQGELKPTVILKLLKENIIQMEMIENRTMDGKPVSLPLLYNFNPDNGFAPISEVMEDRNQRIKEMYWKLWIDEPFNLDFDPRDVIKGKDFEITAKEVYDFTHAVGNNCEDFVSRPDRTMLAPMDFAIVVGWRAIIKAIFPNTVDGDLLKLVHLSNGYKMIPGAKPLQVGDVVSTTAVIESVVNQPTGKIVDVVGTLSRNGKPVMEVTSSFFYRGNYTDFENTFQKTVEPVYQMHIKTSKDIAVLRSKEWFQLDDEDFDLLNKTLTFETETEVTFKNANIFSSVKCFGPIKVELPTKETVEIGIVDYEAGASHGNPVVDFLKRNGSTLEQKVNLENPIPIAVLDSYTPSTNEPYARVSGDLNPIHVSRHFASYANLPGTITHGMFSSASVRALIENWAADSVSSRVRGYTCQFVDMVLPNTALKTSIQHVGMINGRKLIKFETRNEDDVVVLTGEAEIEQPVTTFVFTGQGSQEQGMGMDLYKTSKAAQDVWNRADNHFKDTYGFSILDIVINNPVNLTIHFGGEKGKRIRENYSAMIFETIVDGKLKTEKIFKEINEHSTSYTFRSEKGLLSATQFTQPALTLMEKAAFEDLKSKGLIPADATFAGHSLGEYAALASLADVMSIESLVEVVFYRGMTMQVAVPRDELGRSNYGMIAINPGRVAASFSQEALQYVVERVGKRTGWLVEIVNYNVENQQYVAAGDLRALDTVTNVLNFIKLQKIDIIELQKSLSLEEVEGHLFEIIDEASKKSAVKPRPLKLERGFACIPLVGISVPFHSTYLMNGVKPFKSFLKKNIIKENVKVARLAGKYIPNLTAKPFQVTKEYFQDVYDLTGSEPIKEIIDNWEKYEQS
UniProt P19097: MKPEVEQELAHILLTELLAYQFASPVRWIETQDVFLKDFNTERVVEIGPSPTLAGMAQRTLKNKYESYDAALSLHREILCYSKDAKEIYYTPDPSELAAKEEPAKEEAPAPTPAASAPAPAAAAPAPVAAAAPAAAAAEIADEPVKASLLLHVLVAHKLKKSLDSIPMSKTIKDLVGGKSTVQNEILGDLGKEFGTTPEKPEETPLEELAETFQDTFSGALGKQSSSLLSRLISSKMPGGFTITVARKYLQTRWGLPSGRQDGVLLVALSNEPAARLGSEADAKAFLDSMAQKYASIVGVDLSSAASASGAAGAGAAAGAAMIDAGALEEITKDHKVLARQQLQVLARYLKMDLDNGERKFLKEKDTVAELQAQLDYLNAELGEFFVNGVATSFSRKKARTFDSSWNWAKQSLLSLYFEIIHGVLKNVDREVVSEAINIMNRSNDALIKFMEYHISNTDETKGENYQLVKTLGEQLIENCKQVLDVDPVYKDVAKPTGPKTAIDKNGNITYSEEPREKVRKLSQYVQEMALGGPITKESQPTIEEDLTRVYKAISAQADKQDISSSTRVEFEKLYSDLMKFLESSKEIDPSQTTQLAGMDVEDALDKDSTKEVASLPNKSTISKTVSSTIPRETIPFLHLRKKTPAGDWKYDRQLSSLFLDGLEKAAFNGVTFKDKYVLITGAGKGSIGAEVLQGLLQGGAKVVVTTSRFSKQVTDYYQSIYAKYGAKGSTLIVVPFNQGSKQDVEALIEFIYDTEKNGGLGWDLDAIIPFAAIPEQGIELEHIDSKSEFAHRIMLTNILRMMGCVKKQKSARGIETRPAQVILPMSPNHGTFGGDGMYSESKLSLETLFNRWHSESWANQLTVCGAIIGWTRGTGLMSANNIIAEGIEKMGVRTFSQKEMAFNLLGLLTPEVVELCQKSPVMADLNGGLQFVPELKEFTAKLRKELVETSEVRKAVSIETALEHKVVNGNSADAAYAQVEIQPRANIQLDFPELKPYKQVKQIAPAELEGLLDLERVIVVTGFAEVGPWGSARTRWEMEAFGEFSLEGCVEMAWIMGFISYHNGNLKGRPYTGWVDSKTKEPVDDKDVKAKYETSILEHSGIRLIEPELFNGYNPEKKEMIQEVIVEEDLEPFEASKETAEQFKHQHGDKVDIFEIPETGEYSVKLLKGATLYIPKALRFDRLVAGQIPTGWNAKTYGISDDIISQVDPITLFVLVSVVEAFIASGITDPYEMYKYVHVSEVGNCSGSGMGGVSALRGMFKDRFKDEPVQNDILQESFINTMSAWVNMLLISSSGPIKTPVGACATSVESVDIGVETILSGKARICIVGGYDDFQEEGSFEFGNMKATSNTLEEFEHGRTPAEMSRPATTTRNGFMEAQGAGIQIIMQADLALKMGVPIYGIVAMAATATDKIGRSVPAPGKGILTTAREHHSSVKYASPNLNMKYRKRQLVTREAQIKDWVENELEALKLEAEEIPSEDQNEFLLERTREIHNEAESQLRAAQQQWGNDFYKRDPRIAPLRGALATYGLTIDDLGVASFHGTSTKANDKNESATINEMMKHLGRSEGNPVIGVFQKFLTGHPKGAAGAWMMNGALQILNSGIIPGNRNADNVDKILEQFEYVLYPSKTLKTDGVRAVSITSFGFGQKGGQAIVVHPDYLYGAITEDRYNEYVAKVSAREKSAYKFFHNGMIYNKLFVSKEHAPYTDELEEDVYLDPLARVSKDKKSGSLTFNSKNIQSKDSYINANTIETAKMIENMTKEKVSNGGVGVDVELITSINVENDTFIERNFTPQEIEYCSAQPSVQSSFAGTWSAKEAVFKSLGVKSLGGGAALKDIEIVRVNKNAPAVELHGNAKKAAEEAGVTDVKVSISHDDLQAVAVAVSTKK

No constants are given. Whether binding was seen depends on the method and setting. Binding can be weak; no strength is given.

In assay [1] the target is S. cerevisiae FAS β-chain with the N-terminal trimerization module TM deleted (S. cerevisiae) (UniProt P07149). Description: native gel or EMSA. On the technique in general: In EMSA bound probe runs differently from free probe, usually more slowly.
In assay [2] the target is S. cerevisiae FAS β-chain, wildtype (FAS1-encoded polypeptide) (S. cerevisiae) (UniProt P07149). Description: native gel or EMSA.

Consider “S. cerevisiae FAS α-chain with the embedded dimerization module DM2 deleted (from UniProt P19097)”, for which the binding result in assay [1] and in assay [2] was “binds” in each case.

Take “S. cerevisiae FAS α-chain, wildtype (FAS2-encoded polypeptide) (from UniProt P19097 1-1887)”: in assay [1], the binding result is recorded as “binds”.
